Measurements as given in paper PMC10715081.

By UniProt entry, the sequences of proteins in these tests, tags left out. Residues count along the entry.
UniProt Q8JUX6, residues 536-1333: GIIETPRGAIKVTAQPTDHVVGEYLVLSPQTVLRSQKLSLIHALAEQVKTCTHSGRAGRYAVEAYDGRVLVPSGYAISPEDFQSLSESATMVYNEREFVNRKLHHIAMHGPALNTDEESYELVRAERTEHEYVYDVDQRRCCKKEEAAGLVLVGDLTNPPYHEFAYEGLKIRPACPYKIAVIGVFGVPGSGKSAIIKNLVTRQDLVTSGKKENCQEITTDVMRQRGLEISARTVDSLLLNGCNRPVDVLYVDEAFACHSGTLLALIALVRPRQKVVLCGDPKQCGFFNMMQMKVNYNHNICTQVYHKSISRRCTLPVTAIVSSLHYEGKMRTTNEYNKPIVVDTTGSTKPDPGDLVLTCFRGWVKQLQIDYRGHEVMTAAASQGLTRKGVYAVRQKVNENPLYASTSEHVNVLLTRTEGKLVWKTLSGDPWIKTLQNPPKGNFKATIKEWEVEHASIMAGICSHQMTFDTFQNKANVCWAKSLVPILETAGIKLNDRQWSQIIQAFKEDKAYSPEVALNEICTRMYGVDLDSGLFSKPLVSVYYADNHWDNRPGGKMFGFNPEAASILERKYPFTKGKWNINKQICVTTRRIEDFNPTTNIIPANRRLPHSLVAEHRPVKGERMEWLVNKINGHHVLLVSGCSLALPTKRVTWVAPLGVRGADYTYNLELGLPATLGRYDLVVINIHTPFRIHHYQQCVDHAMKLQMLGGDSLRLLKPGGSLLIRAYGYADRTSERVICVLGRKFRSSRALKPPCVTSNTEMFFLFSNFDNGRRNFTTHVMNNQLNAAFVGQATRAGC
UniProt P35221: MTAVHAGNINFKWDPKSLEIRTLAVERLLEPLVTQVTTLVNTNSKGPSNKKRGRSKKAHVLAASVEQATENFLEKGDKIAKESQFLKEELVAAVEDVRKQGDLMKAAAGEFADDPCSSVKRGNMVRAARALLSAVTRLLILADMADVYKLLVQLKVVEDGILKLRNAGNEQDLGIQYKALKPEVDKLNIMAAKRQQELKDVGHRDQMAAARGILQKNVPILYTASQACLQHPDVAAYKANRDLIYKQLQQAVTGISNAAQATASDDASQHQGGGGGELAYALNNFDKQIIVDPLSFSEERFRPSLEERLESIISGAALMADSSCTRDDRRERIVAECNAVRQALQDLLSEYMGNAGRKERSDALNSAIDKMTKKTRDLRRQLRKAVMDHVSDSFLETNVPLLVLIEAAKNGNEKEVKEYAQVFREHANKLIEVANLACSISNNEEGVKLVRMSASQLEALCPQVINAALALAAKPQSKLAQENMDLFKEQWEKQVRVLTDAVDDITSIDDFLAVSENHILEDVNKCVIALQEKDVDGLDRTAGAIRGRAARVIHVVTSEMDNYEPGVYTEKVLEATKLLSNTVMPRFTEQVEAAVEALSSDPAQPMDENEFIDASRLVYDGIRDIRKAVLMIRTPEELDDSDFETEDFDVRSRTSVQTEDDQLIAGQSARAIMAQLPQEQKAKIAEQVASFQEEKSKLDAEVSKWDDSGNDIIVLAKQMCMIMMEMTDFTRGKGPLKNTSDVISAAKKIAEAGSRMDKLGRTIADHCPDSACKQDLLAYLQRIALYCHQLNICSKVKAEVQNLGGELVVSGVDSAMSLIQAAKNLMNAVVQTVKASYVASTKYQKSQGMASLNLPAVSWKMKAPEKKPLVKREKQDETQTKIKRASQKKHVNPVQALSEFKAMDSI

Molecular target: CHIKV-nsP2 (of the mass spectrometry experiment) (Chikungunya virus) (UniProt Q8JUX6)
Assay: affinity purification with mass spectrometry

Catenin-α-1 (hit of the mass spectrometry of CHIKV-nsP2 partners) (from UniProt P35221 1-906)
binding: binds

No constants are given. Whether binding was seen depends on the method and setting. In cells and extracts the contact can be indirect. These calls come from enrichment with a bait or labelling near it, and not all partners need be listed.
